A short description of this assay: qHTS Assay to Find Inhibitors of Chronic Active B-Cell Receptor Signaling. The settings on record: ABC-DLBCL IkBa-CBG/CBR reporter, luminescence ratio (green luciferase fused to IkBa over red control in TMD8 lymphoma cells), 4 h. A digest of the protocol:
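Cell line TMD8 (human ABC DLBCL), stably expressing tet-inducible CBG68-IkBa fusion and CBR; IMDM/0.5% FBS; cpd up to 46 uM; dox induction, 4 h, 37C/5% CO2; dual luminescence; green/red ratio; MG132 control.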

Where [1] appears, read: measured here: CBR red luminescence, cell number.
Setting [2] is: measured here: IkBa-CBG green luminescence.

The structures appear in SMILES notation. Some of the results follow. The main result of the screen is listed elsewhere. These columns were measured beside it and carry no call. The list favours compounds with an active or inconclusive main result. The note in brackets gives the kind of curve behind each potency; many fits are weak. Square brackets hold non-standard residues; d marks the D form. Peptide text beside a SMILES is read from it. NMeY = CN[C@@H](Cc1ccc(O)cc1)C(=O)O; NMeF = CN[C@@H](Cc1ccccc1)C(=O)O; 2Abz = Nc1ccccc1C(=O)O

`CCOC(=O)Cc1nnc(Nc2cccc(O)c2)c2ccccc12`: under setting [1], the AC50 was 23.1 µM [falling, single point].
As for `CC(C)C[C@@H]1NC(=O)[C@H](Cc2ccccc2)N(C)C(=O)[C@H](C)NC(=O)c2ccccc2NC(=O)[C@H](Cc2ccc(O)cc2)N(C)C1=O` (cyclo([2Abz]A[NMeF]L[NMeY])), the AC50 under setting [1] was 3.55 µM [falling, single point].
Still for that read-out and setting: under `c1ccc(CSc2nc3ncccn3n2)cc1` stands 29.1 µM [rising, single point]; under `CCn1c2c(c(=N)c3c1CCC3)CCCC2`, 35.5 µM [rising, single point]; under `CCOc1ccccc1C(=O)NCC(=O)N1CCN(Cc2ccc3c(c2)OCO3)CC1`, 3.26 µM [rising, partial curve, poor fit].
As for `Cc1[nH]n(-c2ccc([N+](=O)[O-])cc2)c(=O)c1C=NCCN1CCN(C(=O)c2ccccc2)CC1`, the AC50 under setting [1] is 5.17 µM [falling, full curve, poor fit].
On the same count and under the same terms, under `CC(C)n1cc(/C=C/c2cc[n+](C)cc2)c2ccccc21` stands 17.8 µM [falling, single point]; under `Cc1cc(C)n(-c2ccc(C(=O)Nc3nnc(C)s3)cc2)n1`, 2.06 µM [falling, full curve, poor fit].
On the same count and under the same terms, under `Cc1cc(C(=O)N2CCCC(N3CCN(c4cccc(Cl)c4)CC3)C2)n(C)n1` (centres undefined) stands 35.5 µM [falling, single point]; under `COc1ccc(C)cc1N(C(=O)COc1cccc(F)c1)c1nc2ccccc2s1`, 11.6 µM [rising, partial curve, poor fit].
Take `O=C(CSc1nnc2sc3ccccc3n12)N1CCN(c2ccccc2)CC1`: the AC50 under setting [1] is 6.51 µM [rising, single point] and the AC50 under setting [2] was 4.11 µM [falling, partial curve, poor fit].
On to `CCOc1cc(C(=O)N/N=C(\C)Cc2ccc(OC)cc2)cc(OCC)c1OCC`, for which the AC50 under setting [1] is 5.8 µM [rising, full curve] and the AC50 under setting [2] was 5.8 µM [falling, full curve].
With `COC(=NC(C)C)NC(C)C`, the AC50 under setting [1] was 10 µM [rising, partial curve, poor fit].
Regarding `CCOC(=O)Cc1csc(NC(=O)c2cc(OC)cc(OC)c2)n1`, the AC50 reads like this: under setting [1], 3.66 µM [falling, partial curve]; under setting [2], 18.4 µM [rising, partial curve, poor fit].
Consider `COc1ccccc1NC(=O)Nc1ccc(-n2ccc(C(F)(F)F)n2)cc1`, for which the AC50 is 1.26 µM [falling, full curve, poor fit] under setting [1] and 7.08 µM [rising, partial curve, poor fit] under setting [2].
On to `CC1=CN2C(=N)/C(=C/c3ccc(C)o3)C(=O)N=C2S1`, for which the AC50 under setting [1] is 8.2 µM [falling, partial curve, poor fit] and the AC50 under setting [2] is 16.4 µM [rising, partial curve, poor fit].
In the case of `COc1ccc(-n2nc(C(=O)NCC(=O)NCCCN3CCOCC3)c3ccccc3c2=O)c(OC)c1`, the AC50 under setting [1] is 0.447 µM [rising, full curve, poor fit].
Same read-out and setting: under `CCOc1ccc(NC(=O)CSc2nc3cccnc3n2CC)cc1` stands 3.66 µM [rising, partial curve, poor fit].
The same measure, in the same setting: under `O=C(CCNC(=O)c1ccc(Br)cc1)Nc1cc(Cl)ccc1-n1cncn1` stands 1.64 µM [rising, partial curve].
The same measure, in the same setting: under `CC(C)n1c(O)c(N=Nc2ccccn2)c2ccccc21` stands 2.91 µM [rising, full curve]; under `Cc1nc2cc(C(=O)NCc3ccc4c(c3)OCO4)ccc2n1-c1ccc(Br)cc1`, 29.1 µM [falling, single point].
On to `O=C1CCc2cc(NS(=O)(=O)c3ccc(F)cc3)cc3c2N1CCC3`, for which, under setting [1], the AC50 was 5.17 µM [falling, full curve, poor fit].
On the same count and under the same terms, under `Nc1ccccc1NC(=O)NC(=O)c1ccccc1` stands 11.2 µM [falling, single point].
For `CCCn1nnc(NC(=O)c2ccccc2Cl)n1`, under setting [1], the AC50 is 14.1 µM [falling, partial curve].
In the case of `CCn1c(SCC(=O)Nc2ccc(C)cc2)nc2sc3c(c2c1=O)CCN(C)C3`, the half-maximal activity concentration (AC50) under setting [2] is 12.6 µM [falling, partial curve, poor fit].
Take `O=C(N/N=C/c1sc(N2CCCCC2)nc1-c1cccs1)C1CC1`: the AC50 under setting [1] was 20 µM [falling, partial curve, poor fit].
Same read-out and setting: under `CC(=O)c1cccc(NS(=O)(=O)c2ccc(C(=O)Nc3ccccc3)cc2)c1` stands 14.1 µM [falling, single point].
Turning to `CCCOP(=O)(c1ccc(N(C)C)cc1)C(O)c1ccncc1` (centres undefined), the AC50 under setting [1] is 29.1 µM [rising, single point].
For the molecule `CCOC(=O)C1C(=O)CC(=O)CC1CC(C)SCC` (centres undefined), the AC50 under setting [1] was 29.1 µM [rising, single point].
Same read-out and setting: under `CNC(=O)CSc1nc2cc(S(=O)(=O)Nc3ccccc3OC)ccc2o1` stands 10 µM [falling, partial curve, poor fit]; under `C(=N/Nc1nccs1)/c1cccnc1`, 31.6 µM [falling, partial curve, poor fit]; under `O=C(c1ccc(COc2ccc(F)cc2)o1)n1cccn1`, 11.2 µM [falling, single point].
`CC(C)(C)n1cnc2cc(NC(=O)c3ccccc3)ccc21`: under setting [1], the half-maximal activity concentration (AC50) was 15.8 µM [falling, single point].
In the case of `C[C@@]12C(=O)Nc3ccc(Cl)cc3C(=O)N1[C@H]1c3cc(Br)ccc3OC[C@@H]1[C@@H]2c1ccccc1`, the AC50 is, setting by setting: under setting [1], 7.31 µM [falling, partial curve]; under setting [2], 7.31 µM [rising, partial curve, poor fit].
With `Cc1cccc(N(CC(=O)NC2CCCC2)C(=O)CCC(=O)Nc2nc(C)cs2)c1`, the AC50 under setting [1] was 17.8 µM [falling, partial curve, poor fit].
Still for that read-out and setting: under `CC(NC(=O)c1ccccc1Cl)C1CC2CCC1C2` (centres undefined) stands 35.5 µM [rising, single point].
Take `O=C(CSc1nc2ccc(Cl)cc2[nH]1)NCCc1ccc(Cl)cc1`: the AC50 under setting [1] is 14.6 µM [falling, single point].
On the same count and under the same terms, under `CN(C)/C=N/c1c(C(=O)NCc2ccccc2)nnn1Cc1ccccc1` stands 3.55 µM [rising, single point].

What is called AC50 is the concentration giving half of the maximal activity seen.

For the origin of these results see PubChem BioAssay AID493014 (National Center for Advancing Translational Sciences (NCATS), 2011).
